These are yes or no findings as the source states them, for the method shown. Binding seen in cells or lysates may run through a third protein. A yes stands for co-enrichment or nearness to the bait. Other partners may have been found.
B1: General transcription factor IIIC, polypeptide 3, 102kDa (protein, UniProt Q9Y5Q9-1 1-886)
chain: MSGFSPELIDYLEGKISFEEFERRREERKTREKKSLQEKGKLSAEENPDDSEVPSSSGINSTKSQDKDVNEGETSDGVRKSVHKVFASMLGENEDDEEEEEEEEEEEEEEETPEQPTAGDVFVLEMVLNRETKKMMKEKRPRSKLPRALRGLMGEANIRFARGEREEAILMCMEIIRQAPLAYEPFSTLAMIYEDQGDMEKSLQFELIAAHLNPSDTEEWVRLAEMSLEQDNIKQAIFCYTKALKYEPTNVRYLWERSSLYEQMGDHKMAMDGYRRILNLLSPSDGERFMQLARDMAKSYYEANDVTSAINIIDEAFSKHQGLVSMEDVNIAAELYISNKQYDKALEIITDFSGIVLEKKTSEEGTSEENKAPENVTCTIPDGVPIDITVKLMVCLVHLNILEPLNPLLTTLVEQNPEDMGDLYLDVAEAFLDVGEYNSALPLLSALVCSERYNLAVVWLRHAECLKALGYMERAAESYGKVVDLAPLHLDARISLSTLQQQLGQPEKALEALEPMYDPDTLAQDANAAQQELKLLLHRSTLLFSQGKMYGYVDTLLTMLAMLLKVAMNRAQVCLISSSKSGERHLYLIKVSRDKISDSNDQESANCDAKAIFAVLTSVLTKDDWWNLLLKAIYSLCDLSRFQEAELLVDSSLEYYSFYDDRQKRKELEYFGLSAAILDKNFRKAYNYIRIMVMENVNKPQLWNIFNQVTMHSQDVRHHRFCLRLMLKNPENHALCVLNGHNAFVSGSFKHALGQYVQAFRTHPDEPLYSFCIGLTFIHMASQKYVLRRHALIVQGFSFLNRYLSLRGPCQESFYNLGRGLHQLGLIHLAIHYYQKALELPPLVVEGIELDQLDLRRDIAYNLSLIYQSSGNTGMAQTLLYTYCSI
B2: Pyrroline-5-carboxylate reductase-like (protein, UniProt Q53H96-1 1-274)
chain: MAAAEPSPRRVGFVGAGRMAGAIAQGLIRAGKVEAQHILASAPTDRNLCHFQALGCRTTHSNQEVLQSCLLVIFATKPHVLPAVLAEVAPVVTTEHILVSVAAGVSLSTLEELLPPNTRVLRVLPNLPCVVQEGAIVMARGRHVGSSETKLLQHLLEACGRCEEVPEAYVDIHTGLSGSGVAFVCAFSEALAEGAVKMGMPSSLAHRIAAQTLLGTAKMLLHEGQHPAQLRSDVCTPGGTTIYGLHALEQGGLRAATMSAVEAATCRAKELSRK
B3: RNA binding motif protein 14 (protein, UniProt Q96PK6-1 1-669)
chain: MKIFVGNVDGADTTPEELAALFAPYGTVMSCAVMKQFAFVHMRENAGALRAIEALHGHELRPGRALVVEMSRPRPLNTWKIFVGNVSAACTSQELRSLFERRGRVIECDVVKDYAFVHMEKEADAKAAIAQLNGKEVKGKRINVELSTKGQKKGPGLAVQSGDKTKKPGAGDTAFPGTGGFSATFDYQQAFGNSTGGFDGQARQPTPPFFGRDRSPLRRSPPRASYVAPLTAQPATYRAQPSVSLGAAYRAQPSASLGVGYRTQPMTAQAASYRAQPSVSLGAPYRGQLASPSSQSAAASSLGPYGGAQPSASALSSYGGQAAAASSLNSYGAQGSSLASYGNQPSSYGAQAASSYGVRAAASSYNTQGAASSLGSYGAQAASYGAQSAASSLAYGAQAASYNAQPSASYNAQSAPYAAQQAASYSSQPAAYVAQPATAAAYASQPAAYAAQATTPMAGSYGAQPVVQTQLNSYGAQASMGLSGSYGAQSAAAATGSYGAAAAYGAQPSATLAAPYRTQSSASLAASYAAQQHPQAAASYRGQPGNAYDGAGQPSAAYLSMSQGAVANANSTPPPYERTRLSPPRASYDDPYKKAVAMSKRYGSDRRLAELSDYRRLSESQLSFRRSPTKSSLDYRRLPDAHSDYARYSGSYNDYLRAAQMHSGYQRRM

The chains behind the UniProt entries cited, without tags or fusion partners.
UniProt Q7Z2W4: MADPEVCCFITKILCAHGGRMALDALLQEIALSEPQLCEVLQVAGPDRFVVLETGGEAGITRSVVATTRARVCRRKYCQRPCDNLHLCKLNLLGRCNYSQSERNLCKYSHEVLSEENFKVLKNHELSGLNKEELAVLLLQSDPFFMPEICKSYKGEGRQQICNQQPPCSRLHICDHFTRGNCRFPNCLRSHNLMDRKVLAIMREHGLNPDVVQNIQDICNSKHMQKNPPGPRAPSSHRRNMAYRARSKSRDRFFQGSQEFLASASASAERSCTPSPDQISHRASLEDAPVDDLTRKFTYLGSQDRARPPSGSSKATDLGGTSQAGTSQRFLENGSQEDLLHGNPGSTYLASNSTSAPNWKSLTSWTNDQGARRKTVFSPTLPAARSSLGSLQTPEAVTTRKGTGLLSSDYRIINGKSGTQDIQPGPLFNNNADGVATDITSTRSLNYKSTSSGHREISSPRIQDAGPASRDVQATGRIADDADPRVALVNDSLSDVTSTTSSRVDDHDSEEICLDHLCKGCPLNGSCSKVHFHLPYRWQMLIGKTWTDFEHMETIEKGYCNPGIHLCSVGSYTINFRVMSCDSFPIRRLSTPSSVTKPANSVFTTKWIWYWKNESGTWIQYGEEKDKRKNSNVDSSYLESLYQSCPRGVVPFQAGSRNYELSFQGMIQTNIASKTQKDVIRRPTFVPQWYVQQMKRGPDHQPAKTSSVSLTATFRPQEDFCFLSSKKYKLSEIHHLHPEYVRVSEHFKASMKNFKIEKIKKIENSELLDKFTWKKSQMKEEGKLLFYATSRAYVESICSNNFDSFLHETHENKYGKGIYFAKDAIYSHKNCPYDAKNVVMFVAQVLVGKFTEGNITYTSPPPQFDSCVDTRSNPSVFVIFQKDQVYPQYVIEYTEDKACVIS

Biological target: ZAP-L-FL (FLAG-tagged ZAP-L) (human) (UniProt Q7Z2W4)
Assay: affinity purification with mass spectrometry; ZAP-L-FL or empty vector transfected in 293T; IP with α-FLAG agarose from whole cell lysates (sonication) in the presence or absence of 30 μg/ml RNase; tandem MS; hits: 3 or more peptides, two replicate IPs, not in vector control

binding, binds:
B1, B2, B3
